# Reference: the supplement of paper PMC12819154, “High-throughput peptide-centric local stability assay extends protein–ligand identification to membrane proteins, tissues and bacteria” (Nature Structural & Molecular Biology, 2025)
# Protein sequences, listed by entry. Tags and fused reporters are not part of them. Lines headed by an entry give the natural chain unless they say otherwise; changes in a name come on top.
# UniProt Q61235: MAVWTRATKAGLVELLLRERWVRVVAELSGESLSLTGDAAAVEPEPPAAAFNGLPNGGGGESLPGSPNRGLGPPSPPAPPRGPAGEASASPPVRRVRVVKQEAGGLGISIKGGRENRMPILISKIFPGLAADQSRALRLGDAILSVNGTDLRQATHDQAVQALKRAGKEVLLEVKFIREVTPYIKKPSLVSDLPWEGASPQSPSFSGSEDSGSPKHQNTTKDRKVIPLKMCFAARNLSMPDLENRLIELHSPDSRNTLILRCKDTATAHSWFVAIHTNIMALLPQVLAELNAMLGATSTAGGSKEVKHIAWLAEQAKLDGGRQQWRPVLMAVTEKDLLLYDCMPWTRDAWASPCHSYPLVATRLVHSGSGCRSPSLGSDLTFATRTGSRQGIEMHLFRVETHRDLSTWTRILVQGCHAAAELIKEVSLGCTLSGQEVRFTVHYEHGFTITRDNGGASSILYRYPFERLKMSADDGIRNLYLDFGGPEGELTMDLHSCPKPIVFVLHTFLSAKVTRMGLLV
# UniProt Q5NC05: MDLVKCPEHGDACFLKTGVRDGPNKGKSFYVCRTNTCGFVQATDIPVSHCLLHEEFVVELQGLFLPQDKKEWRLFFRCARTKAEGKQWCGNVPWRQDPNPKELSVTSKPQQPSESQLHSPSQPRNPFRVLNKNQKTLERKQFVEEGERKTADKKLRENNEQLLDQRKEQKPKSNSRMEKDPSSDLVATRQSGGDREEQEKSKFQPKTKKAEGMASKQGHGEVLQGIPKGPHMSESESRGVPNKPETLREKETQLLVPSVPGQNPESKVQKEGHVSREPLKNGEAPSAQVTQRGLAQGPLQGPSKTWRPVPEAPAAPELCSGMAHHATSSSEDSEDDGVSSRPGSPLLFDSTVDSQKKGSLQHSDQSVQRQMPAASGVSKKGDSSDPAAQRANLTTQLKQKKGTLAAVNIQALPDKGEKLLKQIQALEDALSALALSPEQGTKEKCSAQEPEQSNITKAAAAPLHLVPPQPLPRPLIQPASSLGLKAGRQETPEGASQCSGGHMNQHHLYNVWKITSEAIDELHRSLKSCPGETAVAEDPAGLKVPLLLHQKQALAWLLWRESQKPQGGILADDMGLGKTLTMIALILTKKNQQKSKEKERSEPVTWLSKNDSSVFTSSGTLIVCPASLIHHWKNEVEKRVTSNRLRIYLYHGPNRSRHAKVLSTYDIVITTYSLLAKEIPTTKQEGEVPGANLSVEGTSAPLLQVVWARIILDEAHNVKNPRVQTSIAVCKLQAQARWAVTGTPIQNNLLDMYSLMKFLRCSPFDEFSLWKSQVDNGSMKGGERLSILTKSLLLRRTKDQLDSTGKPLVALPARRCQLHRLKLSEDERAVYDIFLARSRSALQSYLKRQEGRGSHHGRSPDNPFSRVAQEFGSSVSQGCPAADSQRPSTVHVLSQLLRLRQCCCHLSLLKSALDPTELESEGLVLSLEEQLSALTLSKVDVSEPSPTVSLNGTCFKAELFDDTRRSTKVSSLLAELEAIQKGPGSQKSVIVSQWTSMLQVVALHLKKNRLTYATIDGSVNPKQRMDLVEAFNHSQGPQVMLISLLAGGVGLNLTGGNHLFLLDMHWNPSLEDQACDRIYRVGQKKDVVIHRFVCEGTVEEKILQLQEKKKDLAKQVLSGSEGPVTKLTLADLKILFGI
# UniProt Q61169: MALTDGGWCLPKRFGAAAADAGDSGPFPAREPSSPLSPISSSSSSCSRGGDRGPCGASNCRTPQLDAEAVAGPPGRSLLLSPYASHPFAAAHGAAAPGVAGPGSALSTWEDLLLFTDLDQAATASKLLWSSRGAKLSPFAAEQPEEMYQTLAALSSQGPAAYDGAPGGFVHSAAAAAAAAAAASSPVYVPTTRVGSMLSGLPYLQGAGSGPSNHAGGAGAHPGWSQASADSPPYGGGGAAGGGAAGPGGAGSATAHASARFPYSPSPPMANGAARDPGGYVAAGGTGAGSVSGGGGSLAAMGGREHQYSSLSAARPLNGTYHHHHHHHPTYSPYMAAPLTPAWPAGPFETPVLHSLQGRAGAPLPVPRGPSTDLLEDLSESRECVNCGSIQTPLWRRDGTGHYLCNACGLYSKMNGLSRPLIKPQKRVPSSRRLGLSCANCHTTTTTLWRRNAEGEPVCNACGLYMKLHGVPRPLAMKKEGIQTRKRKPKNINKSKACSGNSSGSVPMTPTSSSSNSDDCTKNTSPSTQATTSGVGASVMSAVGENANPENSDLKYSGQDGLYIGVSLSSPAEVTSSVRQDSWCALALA
# UniProt Q61263: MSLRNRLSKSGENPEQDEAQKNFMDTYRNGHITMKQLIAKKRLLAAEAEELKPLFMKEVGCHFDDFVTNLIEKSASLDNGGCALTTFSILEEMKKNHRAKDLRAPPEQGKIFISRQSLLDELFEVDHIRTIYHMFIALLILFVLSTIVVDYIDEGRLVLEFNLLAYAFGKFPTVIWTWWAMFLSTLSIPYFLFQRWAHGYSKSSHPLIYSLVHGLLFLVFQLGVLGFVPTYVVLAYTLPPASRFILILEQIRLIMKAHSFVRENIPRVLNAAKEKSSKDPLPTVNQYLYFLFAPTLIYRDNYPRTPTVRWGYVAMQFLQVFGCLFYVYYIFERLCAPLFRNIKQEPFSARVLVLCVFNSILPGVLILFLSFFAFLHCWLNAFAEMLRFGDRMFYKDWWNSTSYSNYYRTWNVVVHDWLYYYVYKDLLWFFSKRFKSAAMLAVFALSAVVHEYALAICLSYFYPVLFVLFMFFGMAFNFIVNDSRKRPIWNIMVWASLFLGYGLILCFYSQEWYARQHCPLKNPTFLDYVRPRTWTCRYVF
# UniProt Q5NCQ5: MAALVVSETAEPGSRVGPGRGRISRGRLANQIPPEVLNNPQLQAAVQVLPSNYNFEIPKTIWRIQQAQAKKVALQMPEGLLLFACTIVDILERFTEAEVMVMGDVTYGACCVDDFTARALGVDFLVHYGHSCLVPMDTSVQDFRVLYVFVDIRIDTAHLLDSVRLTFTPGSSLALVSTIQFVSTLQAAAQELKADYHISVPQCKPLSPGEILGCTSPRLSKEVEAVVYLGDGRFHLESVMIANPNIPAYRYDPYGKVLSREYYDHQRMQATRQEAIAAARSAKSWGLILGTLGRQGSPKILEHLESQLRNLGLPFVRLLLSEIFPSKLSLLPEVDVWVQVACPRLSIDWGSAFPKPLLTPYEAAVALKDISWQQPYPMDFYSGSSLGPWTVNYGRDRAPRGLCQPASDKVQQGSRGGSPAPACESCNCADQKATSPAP
# UniProt Q60787: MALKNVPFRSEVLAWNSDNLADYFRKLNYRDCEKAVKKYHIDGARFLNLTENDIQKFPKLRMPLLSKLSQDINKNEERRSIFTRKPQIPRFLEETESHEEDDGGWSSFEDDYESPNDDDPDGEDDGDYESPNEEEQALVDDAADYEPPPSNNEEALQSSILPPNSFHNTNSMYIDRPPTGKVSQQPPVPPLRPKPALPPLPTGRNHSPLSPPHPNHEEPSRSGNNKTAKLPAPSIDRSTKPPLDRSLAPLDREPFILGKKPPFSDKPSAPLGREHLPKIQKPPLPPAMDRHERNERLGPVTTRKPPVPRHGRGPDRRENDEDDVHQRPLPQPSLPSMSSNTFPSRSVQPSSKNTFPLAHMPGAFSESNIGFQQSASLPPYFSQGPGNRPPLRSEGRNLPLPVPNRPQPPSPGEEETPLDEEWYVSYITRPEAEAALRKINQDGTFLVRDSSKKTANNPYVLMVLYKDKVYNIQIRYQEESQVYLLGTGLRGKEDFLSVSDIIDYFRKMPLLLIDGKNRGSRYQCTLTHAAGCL
# UniProt Q5U464: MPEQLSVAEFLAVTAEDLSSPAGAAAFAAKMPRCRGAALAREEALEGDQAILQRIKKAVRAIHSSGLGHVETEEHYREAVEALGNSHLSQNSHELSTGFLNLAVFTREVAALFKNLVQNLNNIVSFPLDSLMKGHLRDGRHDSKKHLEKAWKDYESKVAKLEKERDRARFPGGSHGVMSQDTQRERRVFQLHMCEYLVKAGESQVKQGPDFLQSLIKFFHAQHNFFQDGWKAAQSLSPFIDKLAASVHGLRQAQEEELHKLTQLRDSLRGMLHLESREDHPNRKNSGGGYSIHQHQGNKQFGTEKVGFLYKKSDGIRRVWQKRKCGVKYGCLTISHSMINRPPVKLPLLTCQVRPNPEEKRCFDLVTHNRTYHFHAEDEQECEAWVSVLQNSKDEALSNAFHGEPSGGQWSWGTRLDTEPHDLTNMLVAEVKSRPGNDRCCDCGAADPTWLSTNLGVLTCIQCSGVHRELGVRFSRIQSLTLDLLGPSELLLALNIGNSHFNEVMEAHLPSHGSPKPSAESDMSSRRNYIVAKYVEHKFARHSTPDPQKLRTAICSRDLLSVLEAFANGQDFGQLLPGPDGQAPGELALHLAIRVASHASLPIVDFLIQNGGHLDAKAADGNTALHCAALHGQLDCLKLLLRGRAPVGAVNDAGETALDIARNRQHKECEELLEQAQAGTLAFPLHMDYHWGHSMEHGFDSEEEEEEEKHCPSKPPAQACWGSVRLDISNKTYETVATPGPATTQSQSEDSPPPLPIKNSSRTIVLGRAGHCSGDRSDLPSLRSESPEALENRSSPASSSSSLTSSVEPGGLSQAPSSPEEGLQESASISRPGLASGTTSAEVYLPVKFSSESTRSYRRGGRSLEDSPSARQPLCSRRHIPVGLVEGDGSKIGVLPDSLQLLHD
# UniProt Q61147: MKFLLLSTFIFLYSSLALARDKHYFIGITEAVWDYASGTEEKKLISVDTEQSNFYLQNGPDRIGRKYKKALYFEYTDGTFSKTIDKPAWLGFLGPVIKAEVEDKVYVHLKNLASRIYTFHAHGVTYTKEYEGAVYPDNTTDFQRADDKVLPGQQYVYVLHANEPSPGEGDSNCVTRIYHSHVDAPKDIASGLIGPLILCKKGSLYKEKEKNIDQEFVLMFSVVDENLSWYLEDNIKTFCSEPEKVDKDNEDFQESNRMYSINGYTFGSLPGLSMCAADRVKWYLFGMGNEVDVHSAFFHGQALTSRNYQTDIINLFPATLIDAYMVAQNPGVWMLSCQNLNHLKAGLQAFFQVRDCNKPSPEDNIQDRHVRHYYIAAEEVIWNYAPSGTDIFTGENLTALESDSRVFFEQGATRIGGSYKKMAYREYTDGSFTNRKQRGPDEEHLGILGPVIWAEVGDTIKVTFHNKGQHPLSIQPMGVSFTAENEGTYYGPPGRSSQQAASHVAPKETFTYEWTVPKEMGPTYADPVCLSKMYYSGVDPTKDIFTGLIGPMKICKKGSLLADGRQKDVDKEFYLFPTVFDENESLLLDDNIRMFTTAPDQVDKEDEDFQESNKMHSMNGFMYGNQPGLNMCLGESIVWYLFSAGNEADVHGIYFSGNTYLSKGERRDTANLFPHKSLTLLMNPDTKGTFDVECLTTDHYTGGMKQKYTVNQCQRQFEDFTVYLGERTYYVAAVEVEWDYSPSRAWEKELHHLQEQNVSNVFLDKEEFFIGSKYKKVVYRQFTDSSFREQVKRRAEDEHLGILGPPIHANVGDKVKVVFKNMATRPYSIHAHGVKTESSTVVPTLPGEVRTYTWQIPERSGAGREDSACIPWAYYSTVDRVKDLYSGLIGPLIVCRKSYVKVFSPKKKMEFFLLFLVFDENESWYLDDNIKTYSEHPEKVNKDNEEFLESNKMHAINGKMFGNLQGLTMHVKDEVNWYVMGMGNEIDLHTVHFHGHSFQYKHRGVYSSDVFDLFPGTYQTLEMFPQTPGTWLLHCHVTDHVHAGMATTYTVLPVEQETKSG
# UniProt Q5I1X5: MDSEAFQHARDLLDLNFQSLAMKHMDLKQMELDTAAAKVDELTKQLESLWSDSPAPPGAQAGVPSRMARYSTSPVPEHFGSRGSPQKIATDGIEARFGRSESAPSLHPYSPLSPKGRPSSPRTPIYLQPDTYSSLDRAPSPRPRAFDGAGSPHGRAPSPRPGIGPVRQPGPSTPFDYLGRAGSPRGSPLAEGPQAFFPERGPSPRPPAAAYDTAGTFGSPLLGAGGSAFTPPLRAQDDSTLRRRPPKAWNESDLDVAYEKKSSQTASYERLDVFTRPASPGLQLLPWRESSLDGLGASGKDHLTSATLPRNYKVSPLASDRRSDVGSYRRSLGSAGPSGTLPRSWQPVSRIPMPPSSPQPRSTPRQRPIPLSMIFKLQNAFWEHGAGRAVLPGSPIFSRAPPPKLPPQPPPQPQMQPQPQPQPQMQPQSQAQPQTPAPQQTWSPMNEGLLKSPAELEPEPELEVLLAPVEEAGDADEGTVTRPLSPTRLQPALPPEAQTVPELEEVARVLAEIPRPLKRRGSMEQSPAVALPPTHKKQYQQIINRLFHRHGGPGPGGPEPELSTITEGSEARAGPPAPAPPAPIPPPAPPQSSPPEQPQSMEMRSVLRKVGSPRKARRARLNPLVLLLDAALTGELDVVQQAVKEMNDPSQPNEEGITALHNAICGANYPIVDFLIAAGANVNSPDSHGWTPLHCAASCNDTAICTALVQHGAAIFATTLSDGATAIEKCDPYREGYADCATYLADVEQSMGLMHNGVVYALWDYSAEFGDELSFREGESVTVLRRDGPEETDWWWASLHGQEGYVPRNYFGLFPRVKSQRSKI
# This is one part of the list. Most values lie at the level of the controls, where differences are scatter.
# Compound: CN[C@@H]1C[C@H]2O[C@@](C)([C@@H]1OC)n1c3ccccc3c3c4c(c5c6ccccc6n2c5c31)C(=O)NC4 [staurosporine]
# Experiment: log2 fold change of tryptic peptide abundance, ligand vs vehicle (limited proteolysis) (log2 ratio); higher = more trypsin-susceptible (destabilized)
# Settings: ligand concentration: 20 uM; sample: mouse liver crude lysate; replicate design: treated separately
row,Target,log2 fold change
1,"UniProt Q5SSM3 (peptide sequence: QLANQTVGR, peptide start residue: 10)",-0.0211
2,"UniProt Q61235 (peptide sequence: VVKQEAGGLGISIK, peptide start residue: 98)",-0.211
3,"UniProt Q5NC05 (peptide sequence: SPDNPFSR, peptide start residue: 859)",-0.36
4,"UniProt Q61169 (peptide sequence: DGTGHYLCNACGLYSK, peptide start residue: 398)",-0.479
5,"UniProt Q61263 (peptide sequence: NFMDTYR, peptide start residue: 22)",0.23
6,"UniProt Q5NCQ5 (peptide sequence: GLCQPASDKVQQGSR, peptide start residue: 401)",-0.0325
7,"UniProt Q60787 (peptide sequence: STKPPLDR, peptide start residue: 238)",-0.245
8,"UniProt Q5XF89 (peptide sequence: CLVNEVSNGHAVHLTEENR, peptide start residue: 101)",0.0274
9,"UniProt Q5U464 (peptide sequence: RHIPVGLVEGDGSK, peptide start residue: 878)",0.733
10,"UniProt Q61147 (peptide sequence: QFTDSSFR, peptide start residue: 781)",-0.216
11,"UniProt Q5I1X5 (peptide sequence: AFDGAGSPHGR, peptide start residue: 145)",-0.329
